This test addresses FLAG-GLI2^S662A (mouse) (UniProt Q0VGT2). The test is described as follows: co-IP; FLAG beads (mouse IgG agarose beads as negative control) on pre-cleared extract of day 3 differentiating mES[GLI2] and mES[Ctrl] cells; 2 h IP; low salt wash (100 mM NaCl, 50 mM Tris pH7.5); western blot with anti-GLI2 and anti-BRG1 antibodies.

By UniProt entry, the sequences of proteins in these tests, tags left out. Where a name states a change or a piece, a line headed by the entry shows the natural chain unless it says otherwise.
UniProt Q0VGT2: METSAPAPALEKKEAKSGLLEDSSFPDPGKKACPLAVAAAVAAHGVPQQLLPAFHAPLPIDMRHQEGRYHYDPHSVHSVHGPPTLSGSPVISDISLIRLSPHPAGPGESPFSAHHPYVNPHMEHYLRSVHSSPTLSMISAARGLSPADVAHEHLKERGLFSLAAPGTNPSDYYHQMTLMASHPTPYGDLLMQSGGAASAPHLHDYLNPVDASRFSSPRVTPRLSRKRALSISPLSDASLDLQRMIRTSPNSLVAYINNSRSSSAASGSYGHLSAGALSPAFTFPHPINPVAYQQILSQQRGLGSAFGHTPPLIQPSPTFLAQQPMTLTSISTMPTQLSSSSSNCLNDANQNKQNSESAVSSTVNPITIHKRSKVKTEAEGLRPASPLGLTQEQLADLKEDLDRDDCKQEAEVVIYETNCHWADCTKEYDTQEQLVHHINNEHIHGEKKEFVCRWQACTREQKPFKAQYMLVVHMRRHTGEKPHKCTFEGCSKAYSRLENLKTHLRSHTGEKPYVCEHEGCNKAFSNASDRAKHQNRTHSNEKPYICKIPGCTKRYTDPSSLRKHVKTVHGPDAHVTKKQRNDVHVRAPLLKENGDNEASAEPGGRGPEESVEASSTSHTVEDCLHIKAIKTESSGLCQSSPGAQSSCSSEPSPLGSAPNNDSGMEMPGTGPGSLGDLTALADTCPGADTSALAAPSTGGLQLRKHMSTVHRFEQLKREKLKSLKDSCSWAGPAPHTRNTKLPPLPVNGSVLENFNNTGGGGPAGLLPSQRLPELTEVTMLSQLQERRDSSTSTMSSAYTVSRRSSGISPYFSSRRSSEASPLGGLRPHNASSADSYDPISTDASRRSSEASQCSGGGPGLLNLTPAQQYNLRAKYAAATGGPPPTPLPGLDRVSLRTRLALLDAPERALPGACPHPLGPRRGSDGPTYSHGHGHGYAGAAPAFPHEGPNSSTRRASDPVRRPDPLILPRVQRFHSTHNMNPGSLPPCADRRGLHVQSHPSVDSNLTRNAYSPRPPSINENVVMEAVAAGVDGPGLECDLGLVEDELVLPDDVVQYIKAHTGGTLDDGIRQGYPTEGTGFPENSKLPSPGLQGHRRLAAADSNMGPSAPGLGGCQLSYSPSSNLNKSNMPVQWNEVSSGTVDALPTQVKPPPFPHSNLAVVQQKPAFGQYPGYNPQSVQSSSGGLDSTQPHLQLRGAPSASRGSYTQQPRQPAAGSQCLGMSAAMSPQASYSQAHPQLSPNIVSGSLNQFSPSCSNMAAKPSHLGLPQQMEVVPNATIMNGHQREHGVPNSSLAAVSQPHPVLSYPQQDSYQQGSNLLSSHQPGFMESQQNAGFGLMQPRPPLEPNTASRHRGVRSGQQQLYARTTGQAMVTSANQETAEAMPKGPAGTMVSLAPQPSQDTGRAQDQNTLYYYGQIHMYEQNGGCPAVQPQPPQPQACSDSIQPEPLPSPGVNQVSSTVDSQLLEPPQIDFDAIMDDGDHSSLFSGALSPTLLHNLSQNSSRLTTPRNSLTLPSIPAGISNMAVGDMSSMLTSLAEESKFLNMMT
UniProt Q3TKT4: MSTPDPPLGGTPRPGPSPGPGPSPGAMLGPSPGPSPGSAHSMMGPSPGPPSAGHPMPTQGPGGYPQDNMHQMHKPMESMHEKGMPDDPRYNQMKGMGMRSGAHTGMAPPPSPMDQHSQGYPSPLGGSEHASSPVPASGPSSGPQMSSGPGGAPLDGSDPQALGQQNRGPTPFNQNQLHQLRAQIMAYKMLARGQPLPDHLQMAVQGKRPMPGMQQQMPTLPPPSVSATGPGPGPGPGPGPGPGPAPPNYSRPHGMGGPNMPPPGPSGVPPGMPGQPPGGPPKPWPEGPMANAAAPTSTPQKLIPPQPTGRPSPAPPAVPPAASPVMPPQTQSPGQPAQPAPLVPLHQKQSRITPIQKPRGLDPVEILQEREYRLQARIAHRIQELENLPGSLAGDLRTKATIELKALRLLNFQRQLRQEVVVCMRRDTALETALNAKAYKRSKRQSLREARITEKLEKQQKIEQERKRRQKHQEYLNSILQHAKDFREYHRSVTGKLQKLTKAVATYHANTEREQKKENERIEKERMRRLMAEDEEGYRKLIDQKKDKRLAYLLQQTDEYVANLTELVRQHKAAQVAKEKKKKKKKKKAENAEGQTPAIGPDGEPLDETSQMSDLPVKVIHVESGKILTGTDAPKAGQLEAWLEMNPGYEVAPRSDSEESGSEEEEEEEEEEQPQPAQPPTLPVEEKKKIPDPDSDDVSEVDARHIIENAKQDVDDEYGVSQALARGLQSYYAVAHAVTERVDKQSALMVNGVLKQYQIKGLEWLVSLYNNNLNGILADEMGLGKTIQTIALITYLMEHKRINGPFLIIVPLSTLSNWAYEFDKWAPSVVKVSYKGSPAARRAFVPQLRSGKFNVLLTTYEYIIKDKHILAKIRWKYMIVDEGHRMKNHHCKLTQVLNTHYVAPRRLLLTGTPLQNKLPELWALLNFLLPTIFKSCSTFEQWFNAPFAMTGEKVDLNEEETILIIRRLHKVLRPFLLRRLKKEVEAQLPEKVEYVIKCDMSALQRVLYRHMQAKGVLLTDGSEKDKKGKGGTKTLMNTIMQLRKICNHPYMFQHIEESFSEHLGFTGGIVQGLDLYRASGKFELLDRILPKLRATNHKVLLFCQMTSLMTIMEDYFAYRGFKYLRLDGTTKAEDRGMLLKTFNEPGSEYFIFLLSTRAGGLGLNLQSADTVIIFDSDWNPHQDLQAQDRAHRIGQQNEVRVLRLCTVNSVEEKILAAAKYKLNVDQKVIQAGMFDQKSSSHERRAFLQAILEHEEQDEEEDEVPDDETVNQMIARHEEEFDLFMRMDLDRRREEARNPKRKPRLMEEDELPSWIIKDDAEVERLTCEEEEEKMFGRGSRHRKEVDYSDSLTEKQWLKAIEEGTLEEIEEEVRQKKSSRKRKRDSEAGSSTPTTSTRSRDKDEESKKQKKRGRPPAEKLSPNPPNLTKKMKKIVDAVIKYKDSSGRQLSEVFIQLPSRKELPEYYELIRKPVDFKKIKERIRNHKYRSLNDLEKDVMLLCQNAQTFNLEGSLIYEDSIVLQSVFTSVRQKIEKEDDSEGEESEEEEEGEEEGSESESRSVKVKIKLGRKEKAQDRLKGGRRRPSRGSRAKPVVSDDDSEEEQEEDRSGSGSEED

Results are given in words; binding and its absence hold for the method and conditions named. Binding seen in cells or lysates may run through a third protein. Some results given as binding are weak or reduced against the parent protein; the word gives no strength.

Take “Brahma-related gene 1 (BRG1/SMARCA4) (from UniProt Q3TKT4 1-1613)”: the binding result is “binds”.
